PubChem BioAssay AID1259308 | NCATS | 2017

Screen: 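Genes whose loss raises luciferase production in HEK293 cells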 (primary screen)
Cells: human HEK293 embryonic kidney cells stably expressing firefly luciferase (HEK-CMV-Luc2-Hygro)
Knock-down reagent: single siRNA against human genes, 0.8 pmol siRNA per well
Time to read-out: 72 h
Read-out: 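Luciferase light (ONE-Glo) measured on one replicate plate set and viability (CellTiter-Glo) on the other, scaled to a negative control siRNA, with robust z-scores and luciferase per cell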
Reading the numbers: total luciferase, z-score and total luciferase, % of control: higher = more reporter protein produced; luciferase per cell, z-score: higher = more reporter output per viable cell
Hit rule: 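Active when the median/MAD z-score for overall luciferase is greater than 3; a gene was taken forward for validation with new siRNAs if at least two of its three siRNAs passed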
Calls: active = raised luciferase; inactive = no rise
Shown is one part, drawn at random, of about 59,000 reagents. In the full data, about 1,510 (2.6%) are marked active. 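Calls use total luciferase alone and ignore viability, so some active siRNAs may act by altering cell number.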 Reagents against one gene are numbered here. Further read-outs or replicates are left out here.

| target | reagent | total luciferase, z-score | total luciferase, % of control | luciferase per cell, z-score | Outcome |
| --- | --- | --- | --- | --- | --- |
| EQTN | 1 | -0.958 | 62.8 | -0.609 | inactive |
| EQTN | 2 | -0.533 | 71.3 | -0.451 | inactive |
| EQTN | 3 | -1.05 | 61.1 | -0.297 | inactive |
| PLEKHF1 | 1 | 3.52 | 152 | 3.18 | active |
| PLEKHF1 | 2 | -1.76 | 46.8 | -2.4 | inactive |
| PLEKHF1 | 3 | 2.16 | 125 | 1.62 | inactive |
| RANGAP1 | 1 | 1.32 | 108 | 0.514 | inactive |
| RANGAP1 | 2 | 0.576 | 93.3 | 0.711 | inactive |
| RANGAP1 | 3 | 1.04 | 103 | 0.881 | inactive |
| DNAAF3 | 1 | 0.101 | 83.9 | 0.232 | inactive |
| DNAAF3 | 2 | 1.67 | 115 | 1.16 | inactive |
| DNAAF3 | 3 | -0.0998 | 79.9 | 0.0298 | inactive |
| WNT11 | 1 | -0.152 | 78.9 | 0.508 | inactive |
| WNT11 | 2 | 0.805 | 97.9 | 1.52 | inactive |
| WNT11 | 3 | -0.348 | 75 | -0.834 | inactive |
| MGRN1 | 1 | 4.64 | 174 | 4.24 | active |
| MGRN1 | 2 | 3.87 | 159 | 1.7 | active |
| MGRN1 | 3 | -0.881 | 64.4 | -0.989 | inactive |
| EEF1B2P3 | 1 | -0.00294 | 81.8 | 0.332 | inactive |
| EEF1B2P3 | 2 | 1.05 | 103 | 0.378 | inactive |
| EEF1B2P3 | 3 | 0.147 | 84.8 | -0.392 | inactive |
| RNF145 | 1 | -0.283 | 76.3 | 0.18 | inactive |
| RNF145 | 2 | 0.257 | 87 | 0.48 | inactive |
| RNF145 | 3 | -1.1 | 60 | -0.0351 | inactive |
| PCBP4 | 1 | 0.467 | 91.2 | -0.065 | inactive |
| PCBP4 | 2 | -1.43 | 53.5 | -0.926 | inactive |
| PCBP4 | 3 | 1.59 | 114 | 1.82 | inactive |
| RAPGEF1 | 1 | 0.296 | 87.8 | -0.194 | inactive |
| RAPGEF1 | 2 | -1.5 | 52 | -1.05 | inactive |
| RAPGEF1 | 3 | -1.15 | 59 | -1.47 | inactive |
| PM20D1 | 1 | 1.11 | 104 | 0.74 | inactive |
| PM20D1 | 2 | -0.337 | 75.2 | 0.0455 | inactive |
| PM20D1 | 3 | -1.26 | 56.8 | -1.13 | inactive |
| KRT78 | 1 | -0.699 | 68 | -1.1 | inactive |
| KRT78 | 2 | 1.14 | 104 | 1.51 | inactive |
| KRT78 | 3 | 1.03 | 102 | 1.17 | inactive |
| VANGL1 | 1 | 0.924 | 100 | 2.31 | inactive |
| VANGL1 | 2 | -0.169 | 78.5 | -0.38 | inactive |
| VANGL1 | 3 | -1.14 | 59.3 | -1.55 | inactive |
| STK4 | 1 | 0.0692 | 83.3 | 0.455 | inactive |
| STK4 | 2 | -0.684 | 68.3 | -0.565 | inactive |
| STK4 | 3 | -0.71 | 67.8 | -0.288 | inactive |
| FAM120AOS | 1 | 0.475 | 91.3 | 1.57 | inactive |
| FAM120AOS | 2 | 0.106 | 84 | 0.288 | inactive |
| FAM120AOS | 3 | 0.172 | 85.3 | 1.4 | inactive |
| CLDN18 | 1 | -1.3 | 56 | -1.05 | inactive |
| CLDN18 | 2 | 2.04 | 122 | 2.77 | inactive |
| CLDN18 | 3 | 0.854 | 98.9 | 0.681 | inactive |
| KRT23 | 1 | 0.707 | 96 | 0.925 | inactive |
| KRT23 | 2 | -0.0282 | 81.3 | -0.538 | inactive |
| KRT23 | 3 | -0.467 | 72.6 | -0.117 | inactive |
| OR2B6 | 1 | 1.25 | 107 | 0.553 | inactive |
| OR2B6 | 2 | -0.796 | 66.1 | -0.836 | inactive |
| OR2B6 | 3 | -0.952 | 62.9 | -0.118 | inactive |
| HDAC3 | 1 | 1.73 | 116 | 0.744 | inactive |
| HDAC3 | 2 | -2.41 | 33.9 | -3.5 | inactive |
| HDAC3 | 3 | -0.635 | 69.3 | -0.688 | inactive |

Individual results from the entries so far:
Value of PM20D1 #3 under “total luciferase, z-score”: -1.26
Under “total luciferase, % of control”, RNF145 #3 shows 60
Under “Outcome”, EEF1B2P3 #1 is entered as inactive
For “total luciferase, z-score”, RANGAP1 #3 is entered as 1.04
Under “luciferase per cell, z-score”, HDAC3 #3 reads -0.688
MGRN1 #1, luciferase per cell, z-score: 4.24
